For at least one compound, name, drawing or mass did not settle the structure.
Tested on: A. fumigatus strain dsRed
Assay type: in vivo, Aspergillus fumigatus
Conditions: C57BL/6 mice; for fungal dsRed emission: topical at 0 and 6 h post-infection (simvastatin 13.4 μg, deferiprone 11.1 μg, deferroxamine 52.5 μg), 24 h, vs vehicle-treated mice
Experimental: Aspergillus and Fusarium strains were cultured as described above for 2-3 days, and fresh conidia were disrupted with a bacterial L-loop, harvested in 5 ml PBS, and filtered through sterile PBS soaked cotton gauze in a 10 ml syringe to obtain pure conidial suspensions. Conidia were quantified using a hemocytometer and adjusted in PBS to a final stock solution of 15-20,000 conidia/μl. Mice were anaesthetized with 1.25% 2,2,2-tri-bromoethanol in PBS. The corneal epithelium was abraded using a 30-gauge needle, through which a 2 μl injection containing conidia was released into the corneal stroma using a 33-gauge Hamilton syringe. Mice were examined daily under a stereomicroscope for corneal opacification, and quantified by image analysis using Metamorph software as described. At each time point, animals were euthanized by CO2 asphyxiation, and eyes were either placed in 10% formalin and embedded in paraffin, sectioned at 5 μm intervals and stained with periodic acid schiff and hematoxylin (PASH), or were placed in 1 ml of sterile PBS, homogenized and colony forming units (CFU) were quantified by manual count.
For topical drug delivery, compounds were suspended in a commercial eye drop formulation (Alcon laboratories) or in PBS and 8 μl applied topically at 0 h and 6 h post-infection. Lactoferrin (1.25 mg/ml), deferiprone (10 mM), deferroxamine (10 mM), and simvastatin (4 mM) were purchased from Sigma Aldrich (St. Louis, Mo.). BEC (28 mM) was obtained from Cayman chemicals (Ann Arbor, Mich.). E. coli-expressed recombinant human lipocalin-1 was purified as described previously and applied topically at 2 mg/ml. Iron-dextran and deferroxamine were both purchased from Sigma and administered systemically to mice via daily I.P. injections of 5 mg starting at day −2 until mice were euthanized. All animals were bred under specific pathogen-free conditions and maintained according to institutional guidelines.
Growth of the RFP expressing A. fumigatus strain in the cornea was detected using fluorescent microscopy and quantified by Metamorph image analysis. For assessment of fungal viability, whole eyes were homogenized under sterile conditions in 1 ml PBS, using the Mixer Mill MM300 (Retsch) at 33 Hz for 4 min. Subsequently, 100 μl aliquots were plated onto bacteriologic-grade sabouraud dextrose agar plates, incubated for 24 h at 37° C. (Aspergillus) or at 30° C. (Fusarium and Alternaria), and the number of CFUs was determined by direct counting.

[1] = systemic I.P. 5 mg, compared with infected mice receiving vehicle alone

Row | Structure (SMILES) | corneal opacification (systemic I.P. 5 mg, compared to vehicle-treated mice) | CFU [1] | fungal mass (dsRed) [1] | fungal dsRed emission
1 | CC(=O)N(O)CCCCCNC(=O)CCC(=O)N(O)CCCCCNC(=O)CCC(=O)N(O)CCCCCN [deferroxamine] | increased | significantly increased | significantly increased | significantly increased
2 | CCC(C)(C)C(=O)O[C@H]1C[C@@H](C)C=C2C=C[C@H](C)[C@H](CC[C@@H]3C[C@@H](O)CC(=O)O3)[C@H]21 [simvastatin] |  |  |  | significantly less

From US11229685B2, “Fungal iron acquisition inhibitors and uses thereof” (priority 2013, dated 2022)
